PubChem BioAssay AID504847 (National Center for Advancing Translational Sciences (NCATS), 2011)
The whole screen tested about 400,000 compounds, of which about 3,700 (0.93%) were called active. Inconclusive means that the source gave no clear call. Such entries were picked first, then a sample of the others. The call rests on the fitted dose curve; in most records, active means well fitted inhibition curve with a large enough effect; inconclusive means small, poorly fitted or top-dose-only effect, or another doubt; inactive means no such curve, though single readings can be large or run the other way. Potencies of inconclusive entries are doubtful fits and often do not repeat. The source holds several records for some structures; these can differ, active in one and inactive in another.

Chains of the proteins cited; added tags and fusions are not shown. Lines headed by an entry give the natural chain unless they say otherwise; changes in a name come on top.
UniProt P11473: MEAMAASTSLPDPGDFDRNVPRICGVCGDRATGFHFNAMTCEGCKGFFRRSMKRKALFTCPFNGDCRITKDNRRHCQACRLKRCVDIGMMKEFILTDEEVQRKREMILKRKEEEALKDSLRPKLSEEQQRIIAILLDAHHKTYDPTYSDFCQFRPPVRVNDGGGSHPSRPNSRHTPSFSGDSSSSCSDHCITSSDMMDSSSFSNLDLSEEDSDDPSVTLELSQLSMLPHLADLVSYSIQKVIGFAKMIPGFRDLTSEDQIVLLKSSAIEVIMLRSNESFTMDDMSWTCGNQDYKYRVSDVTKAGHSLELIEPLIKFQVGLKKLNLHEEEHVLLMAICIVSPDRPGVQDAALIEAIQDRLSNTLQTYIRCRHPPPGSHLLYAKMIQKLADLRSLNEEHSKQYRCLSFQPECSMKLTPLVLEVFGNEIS

Molecular target: Vitamin D3 receptor (Homo sapiens) (UniProt P11473)
Assay: Inhibitors of the vitamin D receptor (VDR): qHTS
Conditions: VDR-SRC2-3 peptide fluorescence polarization, 2 h; max response, negative = inhibition: hits give low values
Procedure, shortened: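 Compounds are added to VDR with labelled SRC2-3 coactivator peptide and held 2 h at room temperature. Inhibition of the VDR–peptide interaction is then read as a change in fluorescence polarization.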
On the % scale 0 is the no-effect control and ±100 the full control effect; potency means the concentration at half of the fitted maximal effect.

Structure (SMILES)	Potency	max response, negative = inhibition
COc1ccc(C2/C=C\CN(C(=O)OCC3c4ccccc4-c4ccccc43)CC(=O)N2Cc2cccc(F)c2)cc1 (stereo not drawn)	inconclusive: 17.8 µM [inhibitor, partial curve]	–
CCN(Cc1ccccc1)C(=O)Cn1ncc2c(=O)oc3ccc(C)cc3c21	–	inactive: -15.2%
O=C1C2C=CC=CC2=NC(=S)N1CCN1CCC(=C(c2ccc(F)cc2)c2ccc(F)cc2)CC1 (stereo not drawn)	inconclusive: 79.4 µM [inhibitor, single point]	–
N#CC(C#N)=C(N)/C(C#N)=C/c1ccc2[nH]ccc2c1	active: 50.1 µM	–
Cc1ccc(NS(=O)(=O)c2cc(C(=O)O)ccc2Cl)cc1	inconclusive: 39.8 µM [inhibitor, single point]	–
CCCCNC(=O)O[C@@H]1C[C@@H]2CCN3C(=O)CCC[C@H]([C@H]1CC)[C@H]23	inconclusive: 100 µM [inhibitor, single point]	–
O=C(COc1ccccc1F)Nc1nc(-c2ccccn2)cs1	inconclusive: 79.4 µM [inhibitor, single point]	–
O=S(=O)(CCSc1ccccn1)c1nc2ccccc2s1	inconclusive: 79.4 µM [inhibitor, single point]	–
CCn1c(=S)[nH]c2sc3c(c2c1=O)CCCC3	inconclusive: 2.24 µM [inhibitor, full curve, poor fit]	–
O=C(Nc1ccc(N2CCCC2)cc1)c1cc([N+](=O)[O-])ccc1N1CCOCC1	–	inactive: -6.32%
[O-]c1c[n+](-c2ccc(-[n+]3cc([O-])on3)cc2)no1	inconclusive: 79.4 µM [inhibitor, single point]	–
CC(C)=NNc1cc([N+](=O)[O-])cc2c1C(=O)N(C)S2=O (stereo not drawn)	inconclusive: 70.8 µM [inhibitor, single point]	–
COC(=O)CSC(=S)N1C(C)CCCC1C (stereo not drawn)	inconclusive: 79.4 µM [inhibitor, single point]	–
O=C(N/N=C/c1sc2ccccc2c1O)c1cccc2ccccc12	inconclusive: 25.1 µM [inhibitor, single point]	–
CCC1CCc2sc(C(=O)NCC(c3ccc(OC)cc3)N3CCCC3)cc2C1 (stereo not drawn)	inconclusive: 89.1 µM [inhibitor, single point]	–
Cc1ccc2c(c1)-c1[nH]c(=S)ncc1CS2	inconclusive: 89.1 µM [inhibitor, single point]	–
Cc1nn(S(=O)(=O)c2ccccc2)c(C)c1S(=O)(=O)N1CCOCC1	–	inactive: -8.81%
O=[N+]([O-])c1cccnc1S(=O)(=O)c1ccccc1	inconclusive: 25.1 µM [inhibitor, partial curve, poor fit]	–
Cc1cc(C)nc(SCc2csc(N)n2)n1	–	inactive: -14.3%
C/C(=N/NS(=O)(=O)c1cc(C)ccc1C)c1ccncc1	inconclusive: 39.8 µM [inhibitor, full curve, poor fit]	–
Fc1ccccc1Nc1nc(Cl)nc(Cl)n1	active: 70.8 µM	–
COc1cc(NC(=O)C2CCN(S(=O)(=O)c3ccc4c(c3)CC(C)N4C(C)=O)CC2)cc(OC)c1OC (stereo not drawn)	–	inactive: -9.2%

Part of the list above in order of formula weight, smallest number first.
Structure (SMILES)	Potency	max response, negative = inhibition
Cc1ccc(NS(=O)(=O)c2cc(C(=O)O)ccc2Cl)cc1	inconclusive: 39.8 µM [inhibitor, single point]	–
CCCCNC(=O)O[C@@H]1C[C@@H]2CCN3C(=O)CCC[C@H]([C@H]1CC)[C@H]23	inconclusive: 100 µM [inhibitor, single point]	–
O=C(N/N=C/c1sc2ccccc2c1O)c1cccc2ccccc12	inconclusive: 25.1 µM [inhibitor, single point]	–

Further records follow.

Structure (SMILES)	Potency	max response, negative = inhibition
C=CCOc1ccc(-c2nc3c(c(=O)[nH]c(=O)n3CCCC)n2C)cc1OC	inconclusive: 79.4 µM [inhibitor, single point]	–
CC(=O)c1cccc(OC(=O)c2ccc3c(=O)n4c(nc3c2)CCC4)c1	inconclusive: 89.1 µM [inhibitor, single point]	–
CCNc1ccc(Br)cc(C(=O)/C=C/c2ccc3c(c2)OCO3)c1=O	active: 89.1 µM	–
COC(=O)N/N=C(\C)c1ccc(C)c([N+](=O)[O-])c1	–	inactive: -11.5%
Cc1cc(C)cc(NC(=O)Cc2ccc(-n3cccc3)cc2)c1	inconclusive: 89.1 µM [inhibitor, single point]	–
COC1C=CO[C@@]2(C)Oc3c(C)c(O)c4c(O)c(c(C=NN5CCN(C)CC5)c(O)c4c3C2=O)NC(=O)/C(C)=C\C=CC(C)C(O)[C@@H](C)C(O)C(C)[C@H](OC(C)=O)C1C (stereo partly drawn)	inconclusive: 39.8 µM [inhibitor, partial curve]	–
Cc1c(OCc2ccc(C(=O)O)cc2)ccc2c(-c3ccccc3)cc(=O)oc12	active: 79.4 µM	–
Cc1nc(CCN2C(=O)c3ccccc3C2=O)n[nH]1	inconclusive: 17.8 µM [inhibitor, partial curve, poor fit]	–
C(=N\N(Cc1ccccc1)c1ccccc1)/c1cccnc1	–	inactive: -12.3%
CC1(C)C(=O)OC(c2ccccc2)C(C)(C)C1=O (stereo not drawn)	inconclusive: 70.8 µM [inhibitor, single point]	–
CCOC(=O)c1sc(=S)n(C)c1NC(=O)c1ccc(F)cc1	inconclusive: 50.1 µM [inhibitor, partial curve, poor fit]	–
CS(=O)(=O)c1ccc(C(=O)OCC(=O)NCc2cccs2)cc1[N+](=O)[O-]	inconclusive: 56.2 µM [inhibitor, partial curve, poor fit]	–
COC(=O)c1sc(NC(=O)c2cccc([N+](=O)[O-])c2)c(C(N)=O)c1C	–	inactive: -25.6%
CC1CC(C)CN(C(=O)c2ccc3c(c2)N(Cc2ccccc2)CCS3)C1 (stereo not drawn)	inconclusive: 63.1 µM [inhibitor, partial curve, poor fit]	–
CCc1ccc(NC(=O)C(C)n2nc(C)c([N+](=O)[O-])c2C)cc1 (stereo not drawn)	–	inactive: 3.12%
C=CCn1c(N/N=C/c2ccc(O)cc2)nc2ccccc2c1=O	–	inactive: 0.124%
NNC(=O)c1ccc(CSc2n[nH]c(=O)[nH]c2=O)cc1	–	inactive: 2.72%
O=S(=O)(NCc1cc(-c2ccccc2Cl)no1)c1ccc(Cl)cc1	active: 17.8 µM	–
O=C(NCc1ccc2c(c1)OCO2)c1cc(-n2cnnc2)ccc1Cl	–	inactive: 10.4%
CCN1CCN(c2nc3c(C)cccn3c(=O)c2/C=C(\C#N)S(=O)(=O)c2ccc(C)cc2)CC1	–	inactive: -5.05%
CC(C)CC(=O)N1CCC(N2CCN(c3ccccc3)CC2)CC1	inconclusive: 11.2 µM [inhibitor, full curve, poor fit]	–
